According to patent publication US20220074941A1, “HSP90 COMBINATION THERAPY” (Sloan-Kettering Institute for Cancer Research, priority 2011, published 2022):

What was measured:
[1] = system: Hsp90 complexes in K562 cell extract; assay: Nano-LC-MS/MS of PU-beads pull-downs; type: binding; details: protein identified in PU-beads pull-down of K562 extract, QSTAR-Elite QTof MS
How it was run: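 Lysates pre-cleared overnight at 4 °C with control beads, then pulled down with PU-beads or control beads; eluted proteins (2% SDS boil) gel-separated and analysed by nano LC-MS/MS on a QTof. Mascot identification (p<0.05), spectral counts and sequence coverage evaluated in Scaffold.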

[2] = system: Hsp90 complexes in Mia-PaCa-2 cell extract; assay: Nano-LC-MS/MS of PU-beads pull-downs; type: binding, human; details: protein identified in PU-beads pull-down of Mia-Paca 2 extract; QSTAR-Elite QTof MS
Description: Lysates prepared as mentioned above were first pre-cleaned by incubation with control beads overnight at 4° C. […] Beads were washed with lysis buffer, proteins eluted by boiling in 2% SDS, separated on a denaturing gel and Coomassie stained according to manufacturer's procedure (Biorad). […] Analyses of the batch purified pools were done using a QSTAR-Elite hybrid quadrupole time-of-flight mass spectrometer (QTof MS) (AB/MDS Sciex), equipped with a nano spray ion source. Peptide mixtures (in 20 μL) are loaded onto a trapping guard column (0.3×5-mm PepMap C18 100 cartridge from LC Packings) using an Eksigent nano MDLC system (Eksigent Technologies, Inc) at a flow rate of 20 μL/min. […] Electrospray ionization (ESI) needle voltage was set at about 1800 V. The mass analyzer is operated in automatic, data-dependent MS/MS acquisition mode, with the threshold set to 10 counts per second of doubly or triply charged precursor ions selected for fragmentation scans. Survey scans of 0.25 sec are recorded from 400 to 1800 amu; up to 3 MS/MS scans are then collected sequentially for the selected precursor ions, recording from 100 to 1800 amu. The collision energy is automatically adjusted in accordance with the m/z value of the precursor ions selected for MS/MS. Selected precursor ions are excluded from repeated selection for 60 sec after the end of the corresponding fragmentation duty cycle. […] One missed tryptic cleavage site was allowed, precursor ion mass tolerance=0.4 Da fragment ion mass tolerance=0.4 Da, protein modifications were allowed for Met-oxide, Cys-acrylamide and N-terminal acetylation. MudPit scoring was typically applied with ‘require bold red’ activated, and using significance threshold score p<0.05. Unique peptide counts (or ‘spectral counts’) and percent sequence coverages for all identified proteins were exported to Scaffold Proteome Software (version 2_06_01, www.proteomesoftware.com) for further bioinformatic analysis (Table 5a). Using output from Mascot, Scaffold validates, organizes, and interprets mass spectrometry data, allowing more easily to manage large amounts of data, to compare samples, and to search for protein modifications.

Row | Molecule | Number of Assigned Spectra, K562 Prep 1 [1] | Number of Assigned Spectra, K562 Prep 2 [1] | Number of Assigned Spectra, Mia-Paca 2 [2]
1 | KSR1 (protein, UniProt Q8IVT5 1-923, looked up) Kinase suppressor of Ras 1: MDRAALRAAAMGEKKEGGGGGDAAAAEGGAGAAASRALQQCGQLQKLIDISIGSLRGLRTKCAVSNDLTQQEIRTLEAKLVRYICKQRQCKLSVAPGERTPELNSYPRFSDWLYTFNVRPEVVQEIPRDLTLDALLEMNEAKVKETLRRCGASGDECGRLQYALTCLRKVTGLGGEHKEDSSWSSLDARRESGSGPSTDTLSAASLPWPPGSSQLGRAGNSAQGPRSISVSALPASDSPTPSFSEGLSDTCIPLHASGRLTPRALHSFITPPTTPQLRRHTKLKPPRTPPPPSRKVFQLLPSFPTLTRSKSHESQLGNRIDDVSSMRFDLSHGSPQMVRRDIGLSVTHRFSTKSWLSQVCHVCQKSMIFGVKCKHCRLKCHNKCTKEAPACRISFLPLTRLRRTESVPSDINNPVDRAAEPHFGTLPKALTKKEHPPAMNHLDSSSNPSSTTSSTPSSPAPFPTSSNPSSATTPPNPSPGQRDSRFNFPAAYFIHHRQQFIFPVPSAGHCWKCLLIAESLKENAFNISAFAHAAPLPEAADGTRLDDQPKADVLEAHEAEAEEPEAGKSEAEDDEDEVDDLPSSRRPWRGPISRKASQTSVYLQEWDIPFEQVELGEPIGQGRWGRVHRGRWHGEVAIRLLEMDGHNQDHLKLFKKEVMNYRQTRHENVVLFMGACMNPPHLAIITSFCKGRTLHSFVRDPKTSLDINKTRQIAQEIIKGMGYLHAKGIVHKDLKSKNVFYDNGKVVITDFGLFGISGVVREGRRENQLKLSHDWLCYLAPEIVREMTPGKDEDQLPFSKAADVYAFGTVWYELQARDWPLKNQAAEASIWQIGSGEGMKRVLTSVSLGKEVSEILSACWAFDLQERPSFSLLMDMLEKLPKLNRRLSHPGHFWKSADINSSKVVPRFERFGLGVLESSNPKM | 3 | 0 | 0
2 | SCYL1 (protein, UniProt Q96KG9 1-808, looked up) N-terminal kinase-like protein: MWFFARDPVRDFPFELIPEPPEGGLPGPWALHRGRKKATGSPVSIFVYDVKPGAEEQTQVAKAAFKRFKTLRHPNILAYIDGLETEKCLHVVTEAVTPLGIYLKARVEAGGLKELEISWGLHQIVKALSFLVNDCSLIHNNVCMAAVFVDRAGEWKLGGLDYMYSAQGNGGGPPRKGIPELEQYDPPELADSSGRVVREKWSADMWRLGCLIWEVFNGPLPRAAALRNPGKIPKTLVPHYCELVGANPKVRPNPARFLQNCRAPGGFMSNRFVETNLFLEEIQIKEPAEKQKFFQELSKSLDAFPEDFCRHKVLPQLLTAFEFGNAGAVVLTPLFKVGKFLSAEEYQQKIIPVVVKMFSSTDRAMRIRLLQQMEQFIQYLDEPTVNTQIFPHVVHGFLDTNPAIREQTVKSMLLLAPKLNEANLNVELMKHFARLQAKDEQGPIRCNTTVCLGKIGSYLSASTRHRVLTSAFSRATRDPFAPSRVAGVLGFAATHNLYSMNDCAQKILPVLCGLTVDPEKSVRDQAFKAIRSFLSKLESVSEDPTQLEEVEKDVHAASSPGMGGAAASWAGWAVTGVSSLTSKLIRSHPTTAPTETNIPQRPTPEGVPAPAPTPVPATPTTSGHWETQEEDKDTAEDSSTADRWDDEDWGSLEQEAESVLAQQDDWSTGGQVSRASQVSNSDHKSSKSPESDWSSWEAEGSWEQGWQEPSSQEPPPDGTRLASEYNWGGPESSDKGDPFATLSARPSTQPRPDSWGEDNWEGLETDSRQVKAELARKKREERRREMEAKRAERKVAKGPMKLGARKLD | 8 | 2 | 0
3 | PRKAA1 (protein, UniProt Q13131 1-559, looked up) 5'-AMP-activated protein …: MRRLSSWRKMATAEKQKHDGRVKIGHYILGDTLGVGTFGKVKVGKHELTGHKVAVKILNRQKIRSLDVVGKIRREIQNLKLFRHPHIIKLYQVISTPSDIFMVMEYVSGGELFDYICKNGRLDEKESRRLFQQILSGVDYCHRHMVVHRDLKPENVLLDAHMNAKIADFGLSNMMSDGEFLRTSCGSPNYAAPEVISGRLYAGPEVDIWSSGVILYALLCGTLPFDDDHVPTLFKKICDGIFYTPQYLNPSVISLLKHMLQVDPMKRATIKDIREHEWFKQDLPKYLFPEDPSYSSTMIDDEALKEVCEKFECSEEEVLSCLYNRNHQDPLAVAYHLIIDNRRIMNEAKDFYLATSPPDSFLDDHHLTRPHPERVPFLVAETPRARHTLDELNPQKSKHQGVRKAKWHLGIRSQSRPNDIMAEVCRAIKQLDYEWKVVNPYYLRVRRKNPVTSTYSKMSLQLYQVDSRTYLLDFRSIDDEITEAKSGTATPQRSGSVSNYRSCQRSDSDAEAQGKSSEVSLTSSVTSLDSSPVDLTPRPGSHTIEFFEMCANLIKILAQ | 11 | 6 | 1
4 | RIOK2 (protein, UniProt Q9BVS4 1-552, looked up) Serine/threonine-protein …: MGKVNVAKLRYMSRDDFRVLTAVEMGMKNHEIVPGSLIASIASLKHGGCNKVLRELVKHKLIAWERTKTVQGYRLTNAGYDYLALKTLSSRQVVESVGNQMGVGKESDIYIVANEEGQQFALKLHRLGRTSFRNLKNKRDYHKHRHNVSWLYLSRLSAMKEFAYMKALYERKFPVPKPIDYNRHAVVMELINGYPLCQIHHVEDPASVYDEAMELIVKLANHGLIHGDFNEFNLILDESDHITMIDFPQMVSTSHPNAEWYFDRDVKCIKDFFMKRFSYESELFPTFKDIRREDTLDVEVSASGYTKEMQADDELLHPLGPDDKNIETKEGSEFSFSDGEVAEKAEVYGSENESERNCLEESEGCYCRSSGDPEQIKEDSLSEESADARSFEMTEFNQALEEIKGQVVENNSVTEFSEEKNRTENYNRQDGQRVQGGVPAGSDEYEDECPHLIALSSLNREFRPFRDEENVGAMNQYRTRTLSITSSGSAVSCSTIPPELVKQKVKRQLTKQQKSAVRRRLQKGEANIFTKQRRENMQNIKSSLEAASFWGE | 7 | 6 | 1
5 | CSNK1A1 (protein, UniProt P48729 2-337, looked up) Casein kinase I isoform alpha: ASSSGSKAEFIVGGKYKLVRKIGSGSFGDIYLAINITNGEEVAVKLESQKARHPQLLYESKLYKILQGGVGIPHIRWYGQEKDYNVLVMDLLGPSLEDLFNFCSRRFTMKTVLMLADQMISRIEYVHTKNFIHRDIKPDNFLMGIGRHCNKLFLIDFGLAKKYRDNRTRQHIPYREDKNLTGTARYASINAHLGIEQSRRDDMESLGYVLMYFNRTSLPWQGLKAATKKQKYEKISEKKMSTPVEVLCKGFPAEFAMYLNYCRGLRFEEAPDYMYLRQLFRILFRTLNHQYDYTFDWTMLKQKAAQQAASSSGQGQQAQTPTGKQTDKTKSNMKGF | 5 | 0 | 1
6 | PRKD2 (protein) MATAPSYPAGLPGSPGPGSPPPPGGLELQSPPPLLPQIPAPGSGVSFHIQIGLTREFVLLPAASELAHVKQLACSIVDQKFPECGFYGLYDKILLFKHDPTSANLLQLVRSSGDIQEGDLVEVVLSASATFEDFQIRPHALTVHSYRAPAFCDHCGEMLFGLVRQGLKCDGCGLNYHKRCAFSIPNNCSGARKRRLSSTSLASGHSVRLGTSESLPCTAEELSRSTTELLPRRPPSSSSSSSASSYTGRPIELDKMLLSKVKVPHTFLIHSYTRPTVCQACKKLLKGLFRQGLQCKDCKFNCHKRCATRVPNDCLGEALINGDVPMEEATDFSEADKSALMDESEDSGVIPGSHSENALHASEEEEGEGGKAQSSLGYIPLMRVVQSVRHTTRKSSTTLREGWVVHYSNKDTLRKRHYWRLDCKCITLFQNNTTNRYYKEIPLSEILTVESAQNFSLVPPGTNPHCFEIVTANATYFVGEMPGGTPGGPSGQGAEAARGWETAIRQALMPVILQDAPSAPGHAPHRQASLSISVSNSQIQENVDIATVYQIFPDEVLGSGQFGVVYGGKHRKTGRDVAVKVIDKLRFPTKQESQLRNEVAILQSLRHPGIVNLECMFETPEKVFVVMEKLHGDMLEMILSSEKGRLPERLTKFLITQILVALRHLHFKNIVHCDLKPENVLLASADPFPQVKLCDFGFARIIGEKSFRRSVVGTPAYLAPEVLLNQGYNRSLDMWSVGVIMYVSLSGTFPFNEDEDINDQIQNAAFMYPASPWSHISAGAIDLINNLLQVKMRKRYSVDKSLSHPWLQEYQTWLDLRELEGKMGERYITHESDDARWEQFAAEHPLPGSGLPTDRDLGGACPPQDHDMQGLAERISVL | 4 | 0 | 0
